These are yes or no findings as the source states them, for the method shown. In cells and extracts the contact can be indirect. Some entries that bind do so weakly or less than the wild type. For some of these results: Sequences can lack the tags named with a protein.
What was measured:
[1] = target: T1, POGZ (human (endogenous in HeLa)) (UniProt Q7Z3K3); experiment: co-IP; endogenous CENP-A or POGZ immunoprecipitated from nocodazole arrested RSF1 WT or RSF1 knockout HeLa cells; immunoblotting
T1 sequence: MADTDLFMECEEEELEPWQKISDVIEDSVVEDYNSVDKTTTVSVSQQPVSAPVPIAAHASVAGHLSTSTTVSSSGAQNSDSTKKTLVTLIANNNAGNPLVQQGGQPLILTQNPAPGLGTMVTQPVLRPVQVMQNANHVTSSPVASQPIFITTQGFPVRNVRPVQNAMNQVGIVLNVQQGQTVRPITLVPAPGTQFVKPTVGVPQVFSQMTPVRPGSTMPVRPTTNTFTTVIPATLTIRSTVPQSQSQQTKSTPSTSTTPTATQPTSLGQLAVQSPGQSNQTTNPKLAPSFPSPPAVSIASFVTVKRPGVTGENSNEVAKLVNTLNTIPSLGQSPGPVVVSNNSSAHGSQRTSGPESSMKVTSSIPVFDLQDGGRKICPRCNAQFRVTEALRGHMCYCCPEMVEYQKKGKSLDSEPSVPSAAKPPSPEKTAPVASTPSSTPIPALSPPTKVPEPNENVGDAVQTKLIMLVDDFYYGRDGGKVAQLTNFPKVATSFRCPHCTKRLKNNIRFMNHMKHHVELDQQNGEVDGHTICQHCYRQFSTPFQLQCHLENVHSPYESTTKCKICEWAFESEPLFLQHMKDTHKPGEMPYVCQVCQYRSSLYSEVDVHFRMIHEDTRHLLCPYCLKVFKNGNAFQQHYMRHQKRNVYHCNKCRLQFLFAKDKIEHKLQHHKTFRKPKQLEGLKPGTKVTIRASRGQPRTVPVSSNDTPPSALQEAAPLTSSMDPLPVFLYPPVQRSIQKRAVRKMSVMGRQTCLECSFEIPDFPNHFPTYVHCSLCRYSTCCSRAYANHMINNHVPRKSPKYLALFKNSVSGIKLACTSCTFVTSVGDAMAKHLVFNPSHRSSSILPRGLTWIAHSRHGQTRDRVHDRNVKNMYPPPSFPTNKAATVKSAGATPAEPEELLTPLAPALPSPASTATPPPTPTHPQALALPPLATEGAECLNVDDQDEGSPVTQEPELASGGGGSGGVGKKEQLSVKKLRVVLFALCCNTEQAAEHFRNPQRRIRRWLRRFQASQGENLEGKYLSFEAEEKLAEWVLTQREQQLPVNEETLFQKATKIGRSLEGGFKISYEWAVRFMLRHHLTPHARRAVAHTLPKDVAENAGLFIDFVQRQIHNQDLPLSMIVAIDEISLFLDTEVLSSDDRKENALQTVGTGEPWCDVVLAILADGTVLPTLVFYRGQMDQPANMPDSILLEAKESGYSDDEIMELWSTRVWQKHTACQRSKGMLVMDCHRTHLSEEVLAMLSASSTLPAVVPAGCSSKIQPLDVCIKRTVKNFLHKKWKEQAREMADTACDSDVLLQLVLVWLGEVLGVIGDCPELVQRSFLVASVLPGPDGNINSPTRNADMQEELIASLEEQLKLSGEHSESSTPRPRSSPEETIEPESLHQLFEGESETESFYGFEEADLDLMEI

[2] = target: CENP-A (human (endogenous in HeLa)) (UniProt P49450); experiment: as above
GST-RSF1 C2 (human) = target: T2, GST-RSF1 C2 (human) (UniProt Q96T23); experiment: pull-down; recombinant GST-RSF1 proteins incubated with lysates of Flag-HDAC1 expressing asynchronously growing (Asy) or mitotic (M) cells for 2 h at 4 °C; immunoblotting; only the target purified
T2 sequence: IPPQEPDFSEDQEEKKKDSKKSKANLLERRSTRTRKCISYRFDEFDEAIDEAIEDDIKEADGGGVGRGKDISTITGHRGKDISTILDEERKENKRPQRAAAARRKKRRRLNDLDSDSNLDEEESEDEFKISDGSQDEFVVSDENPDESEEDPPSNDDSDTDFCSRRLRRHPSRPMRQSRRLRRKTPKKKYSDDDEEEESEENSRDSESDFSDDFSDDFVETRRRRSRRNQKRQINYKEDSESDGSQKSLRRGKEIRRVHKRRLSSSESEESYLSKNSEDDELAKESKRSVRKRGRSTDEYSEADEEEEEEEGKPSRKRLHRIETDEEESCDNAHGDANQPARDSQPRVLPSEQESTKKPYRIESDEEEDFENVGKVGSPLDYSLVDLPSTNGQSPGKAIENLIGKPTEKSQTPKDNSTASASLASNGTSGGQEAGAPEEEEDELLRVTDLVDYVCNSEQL

GST-RSF1 WT (human) = target: T3, GST-RSF1 WT (human) (UniProt Q96T23); experiment: as above
T3 sequence: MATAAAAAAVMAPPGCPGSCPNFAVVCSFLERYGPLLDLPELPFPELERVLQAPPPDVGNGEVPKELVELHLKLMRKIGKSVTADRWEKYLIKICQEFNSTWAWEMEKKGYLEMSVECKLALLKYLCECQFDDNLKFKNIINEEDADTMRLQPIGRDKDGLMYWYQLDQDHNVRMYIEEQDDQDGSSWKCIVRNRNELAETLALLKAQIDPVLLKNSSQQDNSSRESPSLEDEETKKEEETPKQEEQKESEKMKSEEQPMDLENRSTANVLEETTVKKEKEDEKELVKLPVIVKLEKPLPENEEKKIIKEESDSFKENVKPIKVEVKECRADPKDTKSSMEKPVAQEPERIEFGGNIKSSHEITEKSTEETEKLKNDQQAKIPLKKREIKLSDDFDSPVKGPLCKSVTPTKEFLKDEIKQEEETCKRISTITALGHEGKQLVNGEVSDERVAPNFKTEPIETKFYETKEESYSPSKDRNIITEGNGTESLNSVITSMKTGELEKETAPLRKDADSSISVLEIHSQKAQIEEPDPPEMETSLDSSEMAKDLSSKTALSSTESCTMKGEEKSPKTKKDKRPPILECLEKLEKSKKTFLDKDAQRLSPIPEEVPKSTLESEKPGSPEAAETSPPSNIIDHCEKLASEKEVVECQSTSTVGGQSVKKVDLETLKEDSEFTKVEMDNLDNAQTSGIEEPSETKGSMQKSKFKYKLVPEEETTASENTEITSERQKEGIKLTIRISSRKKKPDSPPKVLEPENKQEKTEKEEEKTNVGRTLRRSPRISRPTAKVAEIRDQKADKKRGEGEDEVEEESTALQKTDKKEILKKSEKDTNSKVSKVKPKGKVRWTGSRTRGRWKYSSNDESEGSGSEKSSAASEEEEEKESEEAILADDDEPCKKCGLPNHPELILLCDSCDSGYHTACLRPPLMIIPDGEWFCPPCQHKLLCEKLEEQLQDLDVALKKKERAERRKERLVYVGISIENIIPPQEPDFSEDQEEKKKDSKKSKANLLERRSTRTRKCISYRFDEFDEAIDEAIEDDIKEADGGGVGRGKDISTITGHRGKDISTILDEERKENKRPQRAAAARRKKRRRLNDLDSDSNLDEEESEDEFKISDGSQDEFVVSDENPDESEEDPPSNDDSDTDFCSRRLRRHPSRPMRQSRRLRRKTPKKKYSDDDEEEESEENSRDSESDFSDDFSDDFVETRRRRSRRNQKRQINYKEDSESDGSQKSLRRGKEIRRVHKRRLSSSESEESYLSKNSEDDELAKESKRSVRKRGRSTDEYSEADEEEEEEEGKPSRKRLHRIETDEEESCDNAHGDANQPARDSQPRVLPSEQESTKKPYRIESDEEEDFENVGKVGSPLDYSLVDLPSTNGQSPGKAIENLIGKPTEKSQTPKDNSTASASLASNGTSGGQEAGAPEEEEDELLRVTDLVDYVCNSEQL

“HDAC1 (endogenous) (from UniProt Q13547 1-482) (enzyme)” was tested, and the binding [1] was “binds” and the binding [2] was “binds”.

In the case of “Flag-HDAC1 (from UniProt Q13547 1-482) (enzyme)”, the binding (GST-RSF1 C2 (human)) is reported as “binds” and the binding (GST-RSF1 WT (human)) is reported as “binds”.
